Assay results from patent US10517952B2, “Nucleophile-triggered degradable materials and methods of making and using the same” (GEORGIA TECH RESEARCH CORPORATION, priority 2014, dated 2019).
Some entries share one result that the patent states for a list of compounds.

Experiment: Gelation of 4-PEG-SH with OND linkers, gelation time by inversion test
Format: physicochemical
Conditions: 3.5 wt % 4-PEG-SH, 7% DMSO
Method: PEG-OND hydrogels were prepared by mixing tetravalent thiol-terminated PEG (4-PEG-SH, Mw˜2,500 Da for each arm) at 3.5 weight percent and multivalent OND linkers at equimolar concentration of thiol and electrophile in phosphate buffer containing 7% DMSO by volume (FIG. 42). The reactions were mixed briefly and the gel was allowed to cure at temperature or 37° C. Gelation time was recorded as the point at which the sample no longer flowed upon inversion of the reaction vessel.
Trial gelations were performed by premixing a solution of linker 7a with four-armed thiol-terminated poly(ethylene glycol) (4-PEG-SH. Mn=10,000) in neutral water containing 17% DMSO by volume. The overall concentration of PEG macromer was varied from 0.4 wt % to 8.3 wt % while maintaining an equimolar ratio of thiol to electrophile. Under these conditions, no gels formed on standing at room temperature for five minutes.
Based on empirical observations made in these trials, subsequent gels were prepared at room temperature from 3.5 wt % 4-PEG-SH solutions in phosphate buffers containing 7% DMSO at equimolar concentrations of thiol and OND electrophile. Mixtures were mixed briefly with a vortex mixer, and the reaction vial was periodically tilted or inverted. Gelation time was recorded when the sample no longer flowed and was self-supporting. […] Gelation time at 37° C. was determined by pre-warming 4-PEG-SH macromer and OND stock solutions in a 37° C. water bath. Gel components were combined and mixed briefly by pipetting, and the sample was held in the water bath. Gelation time was determined by the inversion test, as described above.
The labeled protein solutions prepared as described in the previous section were diluted three-fold with pH 7.4 100 mM phosphate buffer and used to dissolve the 4-PEG-SH macromer at 3.76 wt %. This solution was used in an identical manner as pure 4-PEG-SH solution for the purpose of forming PEG-OND hydrogels (FIG. 45). All samples formed self-supporting hydrogels within 1 min after mixing, as determined by the inversion test.

Structure (SMILES): COC(=O)C1=C(C(=O)OC)C2(CNC(=O)CCCC(=O)NCC34C=CC(O3)C(C(=O)OC)=C4C(=O)OC)C=CC1O2 [Linker 7a, Tetramethyl 1,1′-((glutaroylbis(azanediyl))bis(methylene))bis(7-oxabicyclo[2.2.1]hepta-2,5-diene-2,3-dicarboxylate)]
- Gelation time (self-supporting gel, inversion) (pH 7.2, room temperature): less than 1.5 minutes
- Gelation time (self-supporting gel, inversion) (pH 7.4, room temperature): 30 to 45 s

Structure (SMILES): CCOC(=O)C1=C(C(F)(F)F)C2C=CC1(CNC(=O)CCCC(=O)NCC13C=CC(O1)C(C(F)(F)F)=C3C(=O)OCC)O2 [Linker 7b, Diethyl 1,1′-((glutaroylbis(azanediyl))bis(methylene))bis(3-(trifluoromethyl)-7-oxabicyclo[2.2.1]hepta-2,5-diene-2-carboxylate)]
- Gelation time (self-supporting gel, inversion) (pH 7.2, room temperature): less than 1.5 minutes
- Gelation time (self-supporting gel, inversion) (pH 7.4, room temperature): 30 to 45 s

Structure (SMILES): COC(=O)C1=C(C(=O)OC)C2(CNC(=O)CC(O)(CC(=O)NCC34C=CC(O3)C(C(=O)OC)=C4C(=O)OC)C(=O)NCC34C=CC(O3)C(C(=O)OC)=C4C(=O)OC)C=CC1O2 (centres unmarked) [Linker 11, Tetramethyl 1,1′-(((2-(2-(((2,3-bis(methoxycarbonyl)-7-oxabicyclo[2.2.1]hepta-2,5-dien-1-yl)methyl)amino)-2-oxoethyl)-2-hydroxysuccinyl)bis(azanediyl))bis (methylene))bis(7′-oxabicyclo[2.2.1]hepta-2,5-diene-2,3-dicarboxylate)]
- Gelation time (self-supporting gel, inversion) (pH 7.2, room temperature): less than 1.5 minutes
- Gelation time (self-supporting gel, inversion) (pH 7.4, room temperature): 30 to 45 s

Structure (SMILES): COC(=O)C1=C(C(=O)OC)C2(CNC(=O)CCOCC(COCCC(=O)NCC34C=CC(O3)C(C(=O)OC)=C4C(=O)OC)(COCCC(=O)NCC34C=CC(O3)C(C(=O)OC)=C4C(=O)OC)COCCC(=O)NCC34C=CC(O3)C(C(=O)OC)=C4C(=O)OC)C=CC1O2 (centres unmarked) [Linker 12, Tetramethyl 1,1′-(8,8-bis((3-(((2,3-bis(methoxycarbonyl)-7-oxabicyclo[2.2.1]hepta-2,5-dien-1-yl)methyl)amino)-3-oxopropoxy)methyl)-3,13-dioxo-6,10-dioxa-2,14-diazapentadecane-1,15-diyl)bis(7-oxabicyclo[2.2.1]hepta-2,5-diene-2,3-dicarboxylate)]
- Gelation time (self-supporting gel, inversion) (pH 7.2, room temperature): less than 1.5 minutes
- Gelation time (self-supporting gel, inversion) (pH 7.4, room temperature): 30 to 45 s
